What all share (experiment): co-IP; HEK-293T cells co-transfected with tagged constructs; lysed supernatant incubated with Tag-conjugated beads; western blot; for PKM2/HIF-1α with rising amounts of TIPE
(In western blotting, separated proteins are transferred to a membrane and probed.)

Amino acid sequences for entries named in this document (tags omitted). A change or cut given only in a name is not applied to a line headed by its entry. Chains listed by the source or under a name are the forms on record and can include a tag or linker. Residues count along the entry.
UniProt P14618: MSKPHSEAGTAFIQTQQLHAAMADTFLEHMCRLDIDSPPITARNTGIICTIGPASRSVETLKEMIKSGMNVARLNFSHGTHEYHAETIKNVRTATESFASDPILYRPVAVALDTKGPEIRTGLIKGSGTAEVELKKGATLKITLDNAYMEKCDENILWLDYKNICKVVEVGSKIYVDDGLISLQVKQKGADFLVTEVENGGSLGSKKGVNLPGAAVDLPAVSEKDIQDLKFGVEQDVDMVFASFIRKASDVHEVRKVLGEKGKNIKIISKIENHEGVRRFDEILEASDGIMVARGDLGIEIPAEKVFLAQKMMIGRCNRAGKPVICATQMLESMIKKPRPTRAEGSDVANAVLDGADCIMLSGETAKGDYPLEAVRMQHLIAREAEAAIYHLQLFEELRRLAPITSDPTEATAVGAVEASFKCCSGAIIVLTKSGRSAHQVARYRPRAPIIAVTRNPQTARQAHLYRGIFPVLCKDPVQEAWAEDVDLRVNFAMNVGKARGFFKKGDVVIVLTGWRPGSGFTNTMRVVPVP
Flag-tagged PKM2 fragment, amino acids 1-390 (NA1BA2): residues 1-390 of P14618
Flag-tagged PKM2 fragment, amino acids 1-219 (NA1B): residues 1-219 of P14618
Flag-tagged PKM2 fragment, amino acids 45-390 (A1BA2): residues 45-390 of P14618

One assay addresses Flag-tagged PKM2 (UniProt P14618).
For assay [1], the target named is Flag-tagged PKM2 fragment, amino acids 45-390 (A1BA2) (UniProt P14618).
The target of assay [2] is Flag-tagged PKM2 fragment, amino acids 1-219 (NA1B) (UniProt P14618).
Assay [3] addresses Flag-tagged PKM2 fragment, amino acids 1-390 (NA1BA2) (UniProt P14618).

No constants are given. Whether binding was seen depends on the method and setting. Binding seen in cells or lysates may run through a third protein. Some binding calls cover weakened binding; strength is not graded here. Sequences can lack the tags named with a protein.

B1: HA-tagged TIPE fragment, amino acids 1-100 (M1) (domain or fragment, UniProt O95379 1-100)
chain: MHSEAEESKEVATDVFNSKNLAVQAQKKILGKMVSKSIATTLIDDTSSEVLDELYRVTREYTQNKKEAEKIIKNLIKTVIKLAILYRNNQFNQDELALME
Regarding B1, the binding result in the assay with Flag-tagged PKM2 was “binds”.

B2: HA-tagged TIPE (protein, UniProt O95379 1-198)
chain: MHSEAEESKEVATDVFNSKNLAVQAQKKILGKMVSKSIATTLIDDTSSEVLDELYRVTREYTQNKKEAEKIIKNLIKTVIKLAILYRNNQFNQDELALMEKFKKKVHQLAMTVVSFHQVDYTFDRNVLSRLLNECREMLHQIIQRHLTAKSHGRVNNVFDHFSDCEFLAALYNPFGNFKPHLQKLCDGINKMLDEENI
On to B2, for which the binding result (in assay [1]; in assay [2]; in assay [3]; in the assay with Flag-tagged PKM2) was “binds” in each case.

B3: HA-tagged TIPE fragment, amino acids 101-198 (M2) (domain or fragment, UniProt O95379 101-198)
chain: KFKKKVHQLAMTVVSFHQVDYTFDRNVLSRLLNECREMLHQIIQRHLTAKSHGRVNNVFDHFSDCEFLAALYNPFGNFKPHLQKLCDGINKMLDEENI
With B3, the binding result with Flag-tagged PKM2 is on record as “binds”.

Values taken from article PMC11677236.
